Patent publication US7759346B2, “[[2-(amino-3,4-dioxo-1-cyclobuten-1-yl)amino]alkyl]-acid derivatives for the treatment of pain” (priority 2001, dated 2010)
Some results were stated once for a whole list of compounds, not compound by compound.

Experiments:
Spraque-Dawley rats [1] = experiment: Prostaglandin E2-induced thermal hypersensitivity, warm-water tail withdrawal, single compound studies; format: in vivo, rat; conditions: up to doses that produced observable signs of sedation and ataxia
Protocol: Ketamine and dizocilpine are high affinity use-dependent NMDA receptor channel blockers, while memantine is a moderate affinity use-dependent NMDA receptor channel blocker. CGS-19755 is a competitive NMDA antagonist and ifenprodil is a […] polyamine antagonist. Test Method 1: Prostaglandin E2-Induced Thermal Hypersensitivity.
The terminal 10 cm of the tail was placed into a thermos bottle containing water warmed to 38, 42, 46, 50, 54, or 58° C. The latency in seconds for the animal to remove the tail from the water was used as a measure of nociception.
Following the assessment of baseline thermal sensitivity, thermal hypersensitivity was produced by a 50 μL injection of 0.1 mg prostaglandin E2 (PGE2) into the terminal 1 cm of the tail. Temperature-effect curves were generated before (baseline) and after (15, 30, 60, 90 and 120 min) the PGE2 injection.
Single compound studies. The ability of drugs to reverse PGE2-induced thermal hypersensitivity was assessed using a single dose time-course procedure. Under this procedure, a single dose of the compound to be tested was administered intraperitoneally (IP), orally (PO) or intranasally (IN) 30 min before the injection of PGE2. […] sensitivity was assessed 30 min after PGE2 injection.
Test Method 1 Data Analysis—The temperature that produced a half-maximal increase in the tail-withdrawal latency (i.e., T10) was calculated from each temperature-effect curve. The T10 was determined by interpolation from a line drawn between the point above and the point below 10 sec on the temperature-effect curve. For these studies, thermal hypersensitivity was defined as a leftward shift in the temperature-effect curve and a decrease in the T10 value. Reversal of thermal hypersensitivity was defined as a return to baseline of the temperature-effect curve and the T10 value and was calculated according to the following equation:
[formula] in which T10^drug+PGE2 is the T10 after a drug in combination with PGE2, T10^PGE2 is the T10 after PGE2 alone, and T10^baseline is the T10 under control conditions. A % MPE value of 100 indicates a complete return to the baseline thermal sensitivity observed without the PGE2 injection. […] Test Method 2: Chronic Constriction Injury

Spraque-Dawley rats [2] = experiment: Observable signs of sedation and ataxia; conditions: IP, PGE2-induced thermal hypersensitivity study

SMILES | reversal of PGE2-induced thermal hypersensitivity (Spraque-Dawley rats [1]) [%] | doses that produced observable signs of sedation and ataxia (Spraque-Dawley rats [2]) [mg/kg]
C[C@]12N[C@H](Cc3ccccc31)c1ccccc12 [dizocilpine] | ≤ 25 | –
CC12CC3CC(C)(C1)CC(N)(C3)C2 [memantine] | ≤ 25 | –
CC(C(O)c1ccc(O)cc1)N1CCC(Cc2ccccc2)CC1 (centres unmarked) [ifenfrodil, ifenprodil] | ≤ 25 | < 30
CNC1(c2ccccc2Cl)CCCCC1=O (centres unmarked) [ketamine] | ≤ 25 | < 30
O=C(O)[C@H]1C[C@@H](CP(=O)(O)O)CCN1 (relative stereo) [CGS-19755, cis-4-phosphonomethyl-2-piperidine carboxylic acid] | ≤ 25 | < 30
